# Assay results: publication PMC7819943, “Rice protein-binding microarrays: a tool to detect cis-acting elements near promoter regions in rice”
# Protein sequences, listed by entry. Tags and fused reporters are not part of them.
# UniProt Q0JBA9, entry or part of it: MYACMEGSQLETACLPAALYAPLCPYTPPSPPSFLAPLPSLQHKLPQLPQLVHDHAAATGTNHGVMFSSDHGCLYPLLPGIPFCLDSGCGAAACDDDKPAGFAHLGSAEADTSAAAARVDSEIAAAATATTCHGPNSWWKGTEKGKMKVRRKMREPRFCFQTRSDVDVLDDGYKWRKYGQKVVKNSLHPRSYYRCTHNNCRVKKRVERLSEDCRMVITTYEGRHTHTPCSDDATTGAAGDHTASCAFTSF
# The other results are listed elsewhere or left out.
# Biological target: OsWRKY34 (Oryza sativa, UniProt Q0JBA9 1-250)
# Experiment: protein-binding microarray (RPBM); PBS, 2% BSA, 51.3 ng/ul salmon testes DNA, 50 uM zinc acetate, 200 nM TF, 25 C, 1 h; high values mean tight binding
# Conditions: protein: recombinant; tags: N-terminal polyhistidine and DsRed monomer fusion (pET32a); label: CyDye5-dUTP incorporated in the synthesized complementary strand; 3' TTTTT single-stranded linker to array surface; dsDNA, one strand shown
# Method in brief: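 In PBS with 2% BSA, salmon testes DNA and 50 µM zinc acetate, 200 nM protein was incubated on a custom Agilent array at 25 °C for 1 h and then washed off. The array had been made double-stranded by primer extension with Cy5-dUTP and blocked with 2% BSA. The proteins were transcription factors fused N-terminally to polyhistidine and DsRed, expressed in E. coli BL21-CodonPlus and purified on Ni–NTA. The binding signal is per-feature fluorescence intensity (arbitrary units) from an Axon 4000B scanner.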
row,Sequence,binding signal
1,TTGCTTTGGTTTGGTTGGAGAAGGCATCAGCCTCAAGCCACGGAGTCACCTAGTGCAG,8380 fluorescence intensity (a.u.)
2,GAGGGGAGGGTTATGAGAGTGAATTTTTTTTTATCATCTTCGGAGTCACCTAGTGCAG,8460 fluorescence intensity (a.u.)
3,TCGTATAGTGTGTGATAATGCGTATGACTAGTGCTTGTTTCGGAGTCACCTAGTGCAG,11400 fluorescence intensity (a.u.)
4,GAGATCTCCCTGGTGAGCTTGTTGTTCTTCTTCAGTTCTTCGGAGTCACCTAGTGCAG,9910 fluorescence intensity (a.u.)
5,GGTCGGGGTGGTCGTGCACGAGAGGGAATTTCCAGCGCTGCGGAGTCACCTAGTGCAG,11700 fluorescence intensity (a.u.)
6,AACACATGGGCCCTGCCATTTTTACTATTCTATGTGTGTACGGAGTCACCTAGTGCAG,10300 fluorescence intensity (a.u.)
7,ATACGCCTTTTAACCCTAGTATCTATGCCGAAAGCATTTTCGGAGTCACCTAGTGCAG,8090 fluorescence intensity (a.u.)
8,CTCCGACTCTTGCCTCGGCCTCGACCGACTCTCCCGTCTCCGGAGTCACCTAGTGCAG,10300 fluorescence intensity (a.u.)
9,ATTTTGTTCTTTCTTGTTCTGACTTTTTTTCATAGTTTTACGGAGTCACCTAGTGCAG,10400 fluorescence intensity (a.u.)
10,ATCGGGCCGTCCATCCATCTCGCGTCACACGGTCCACCACCGGAGTCACCTAGTGCAG,8320 fluorescence intensity (a.u.)
11,ACTCGCGCCCTCACGCCCAAACCGAGCGAAATCGGTTCCCCGGAGTCACCTAGTGCAG,9360 fluorescence intensity (a.u.)
12,AGGGAGCTATACTTGTCGGTTCAGTTTTCCAGATCATTTTCGGAGTCACCTAGTGCAG,9410 fluorescence intensity (a.u.)
13,GTCCACCACCACCGCGACACCCTTCTCCATGGAGGACTACCGGAGTCACCTAGTGCAG,8090 fluorescence intensity (a.u.)
14,CCTACGTGTTCGACGGAATGCCCAAGCCGTTTCACCCCTGCGGAGTCACCTAGTGCAG,8420 fluorescence intensity (a.u.)
15,TTATTCAGCCAATTAACGTCGTCGATCCATGTCACTGACCCGGAGTCACCTAGTGCAG,8190 fluorescence intensity (a.u.)
16,TAGCCGCGTACATCTCCGGGTTCACCGGGTTCCACGAGTTCGGAGTCACCTAGTGCAG,8160 fluorescence intensity (a.u.)
17,TGCTTTCGTTGGGTTGGGGAAGGGGAGGCGTCGCTTGGTCCGGAGTCACCTAGTGCAG,17100 fluorescence intensity (a.u.)
18,CTTTTGTTTCTTTTGATTGCCCGTTCTGAAAGTGATAAACCGGAGTCACCTAGTGCAG,9270 fluorescence intensity (a.u.)
19,CTCGTGAACCCGCGGCCTTGCTCTCGTCTCGCCCTGGCGTCGGAGTCACCTAGTGCAG,10000 fluorescence intensity (a.u.)
20,CTTTTTTAAACATGTTTGACCGTTCGTCTTATTTAAAAAACGGAGTCACCTAGTGCAG,9350 fluorescence intensity (a.u.)
21,ATGTTTTAATTTTGGGCTTCTTTTTGTTTTGGGCTTTTATCGGAGTCACCTAGTGCAG,24300 fluorescence intensity (a.u.)

# Shown with bars between the fields: entries from further up
row | Sequence | binding signal
6 | AACACATGGGCCCTGCCATTTTTACTATTCTATGTGTGTACGGAGTCACCTAGTGCAG | 10300 fluorescence intensity (a.u.)
16 | TAGCCGCGTACATCTCCGGGTTCACCGGGTTCCACGAGTTCGGAGTCACCTAGTGCAG | 8160 fluorescence intensity (a.u.)

# Continued:

row,Sequence,binding signal
1,TGTGGGTTGGAGGGAGGAGGGGATTGAAGGGTTGTTAATTCGGAGTCACCTAGTGCAG,14900 fluorescence intensity (a.u.)
2,GCGGCCCGTCCTCTCCAATCGCTCTGCCGCCGCTTGCGCCCGGAGTCACCTAGTGCAG,11400 fluorescence intensity (a.u.)
3,TCATTTTTGGCCTTTTTTGGCTGTCTGTTCGGTTTTTTTTCGGAGTCACCTAGTGCAG,11300 fluorescence intensity (a.u.)
4,ACCCCGGCATTGCTCTGCCCGTACACAAACTACCACACTACGGAGTCACCTAGTGCAG,9520 fluorescence intensity (a.u.)
5,GCATTAGAACGAGCGCACCCACTTTCAGTTCTCAAATTATCGGAGTCACCTAGTGCAG,8670 fluorescence intensity (a.u.)
6,ACCTTCGTCCTCGTCGCGCTCTACTACTACCGCTGCACGGCGGAGTCACCTAGTGCAG,13000 fluorescence intensity (a.u.)
7,GTGTTTATGCATGTCAGTAGTTTTAGTACAAGCAATTGTCCGGAGTCACCTAGTGCAG,8500 fluorescence intensity (a.u.)
8,TGTGCTTCTCCACCTGTTGTTCCATTTTCTCCTCGCTTATCGGAGTCACCTAGTGCAG,13900 fluorescence intensity (a.u.)
9,ATACCACATGTCATCTCCGTCGACATCTTTGATTTTGCATCGGAGTCACCTAGTGCAG,8140 fluorescence intensity (a.u.)
10,TGTATCCTCCCGTGCATCGGACCTCGGTTGACAAGCAGTTCGGAGTCACCTAGTGCAG,9860 fluorescence intensity (a.u.)
11,GCGCGGTTCACACTTCACACGCTCTTGCAAGTGATTTGCACGGAGTCACCTAGTGCAG,9600 fluorescence intensity (a.u.)
12,ATTTGCTCCACAGAATCTTCGTCTACCTGCAGTCCCGTCGCGGAGTCACCTAGTGCAG,8900 fluorescence intensity (a.u.)
13,ACCACCTTGTCCCGTGCCGTCCTCATGCGGCGCGAGCTTTCGGAGTCACCTAGTGCAG,10700 fluorescence intensity (a.u.)
14,CCCGGCCTTAAGTTGTTTCTTCCCTATCAGCTCAGGTCTCCGGAGTCACCTAGTGCAG,8520 fluorescence intensity (a.u.)
15,GGTGGGCAGGTGTCAGAGACAAGGGGCGGACTGATTTGTACGGAGTCACCTAGTGCAG,12300 fluorescence intensity (a.u.)
16,GGTGTGGTTTTATAAAATTTTTCTATATGAAAGTTGTTTACGGAGTCACCTAGTGCAG,8140 fluorescence intensity (a.u.)
17,TCCTAGCACCAACTCGCCACCCAATTAGGCCATTACCTTCCGGAGTCACCTAGTGCAG,9810 fluorescence intensity (a.u.)
18,AGCTCTACACATCGCTCTTCTTATCCAGTTAGCCATTTGTCGGAGTCACCTAGTGCAG,8700 fluorescence intensity (a.u.)
19,CTTATGGCCATCTATACATGCAACTGTGTTTTCATATTATCGGAGTCACCTAGTGCAG,9690 fluorescence intensity (a.u.)
20,ACTAAATCCTCAACCACCTCATATGTTTATGTACCATCGACGGAGTCACCTAGTGCAG,9900 fluorescence intensity (a.u.)
21,GTTTTTTTTCGTGTGTACATTTTTCCAGCTGTTAAACGGTCGGAGTCACCTAGTGCAG,8870 fluorescence intensity (a.u.)
